{
  "source": "patent US20090068287A1",
  "about": "“Novel topical formulations of flucytosine and uses thereof” (priority 2007, published 2009)",
  "origin": "cited, not measured here",
  "key": {"C. parapsilosis": {"test_system": "C. parapsilosis", "settings": "65 C. parapsilosis isolates"}, "C. tropicalis": {"test_system": "C. tropicalis", "settings": "70 C. tropicalis isolates"}, "clinical yeast isolates": {"test_system": "clinical yeast isolates", "settings": "227 clinical yeast isolates"}, "Candida albicans": {"test_system": "Candida albicans", "settings": "342 Candida albicans isolates"}, "C. glabrata": {"test_system": "C. glabrata", "settings": "68 C. glabrata isolates"}},
  "note": "For at least one compound, name, drawing or mass did not settle the structure.",
  "data": [
    {"smiles": "CCC(C)n1ncn(-c2ccc(N3CCN(c4ccc(OCC5COC(Cn6cncn6)(c6ccc(Cl)cc6Cl)O5)cc4)CC3)cc2)c1=O", "note": "(centres unmarked) [itraconazole]", "values": [
      {"measurement": "isolates resistant", "setting": "C. parapsilosis", "value": 1.5, "unit": "%"},
      {"measurement": "isolates resistant", "setting": "C. tropicalis", "value": 34.3, "unit": "%"},
      {"measurement": "yeast strains resistant", "setting": "clinical yeast isolates", "value": 18.5, "unit": "%"},
      {"measurement": "isolates showing resistance", "setting": "Candida albicans", "value": 8.5, "unit": "%"},
      {"measurement": "isolates resistant", "setting": "C. glabrata", "value": 4.4, "unit": "%"}
    ]}
  ]
}
